A word on the AC50: it is the concentration at which the activity in the assay is half-maximal.

Some of the results follow. These are further read-outs of the screen, such as a control signal, another cell line or another target. No call is given for them. Compounds called inactive in the main read-out are mostly missing here. The note in brackets gives the kind of curve behind each potency; many fits are weak.

This assay in a line: qHTS Assay for Lipid Storage Modulators in Drosophila S3 Cells.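 On cell number change: cells counted by Cell Tracker Red CMTPX staining in the red channel.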 Particulars: BODIPY lipid droplet fluorescence, 18-24 h; for cell number change: measured here: cell count max response, cells fed with added oleic acid. The procedure, abridged: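 Laser-scanning cytometry quantifies lipid droplet accumulation (500–530 nm total intensity; droplet/cell object ratio) in oleic acid-fed (400 uM added) Drosophila S3 cells treated with a concentration series. 20 uM Triacsin C defined 100% inhibition.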
For orientation: qHTS replaces the single test concentration by a dilution series.

The mark [1] stands for this setting: measured here: lipid fluorescence (Fed channel) AC50, cells fed with added oleic acid.
[2] abbreviates: measured here: cell number channel AC50, cells fed with added oleic acid.

In the case of `COc1ccc(S(N)(=O)=O)cc1C(=O)NCC(C)(C)N1CCCCC1`, the cell number change is -3.42%. The AC50 under setting [1] is 0.731 µM [falling, full curve, poor fit].

As to `Cc1nnc(NC(=O)C(C)Sc2nnc(CCNC(=O)c3ccccc3F)n2C)s1` (stereo unspecified), the cell number change was 9.83%.

For the compound `COc1cc(OC)cc(N(C(=O)c2snc(C(N)=O)c2N)C(C(=O)NCC2CCCO2)c2ccc(C)o2)c1` (stereo unspecified), the cell number change is 23.9%. Besides, the AC50 under setting [1] was 4.61 µM [falling, partial curve].

As for `COc1ccc(CN2CCNC(=O)C2CC(=O)NCC2CCOCC2)cc1C` (stereo unspecified), the cell number change was determined as 14.2%.

With `Cc1ccc(S(=O)(=O)CCC(=O)OCC(=O)Nc2cc(F)ccc2C)cc1`, the AC50 under setting [2] was 0.731 µM [rising, partial curve, poor fit] and the AC50 under setting [1] was 1.84 µM [rising, partial curve].

Regarding `COc1ccc(NC(=O)CNC(=O)c2nn(-c3ccc(OC)c(Cl)c3)c(=O)c3ccccc23)c(OC)c1`, the cell number change was 338%. Under setting [2], the AC50 was 23.1 µM [rising, partial curve].

With `COc1cc(C(=O)CCN2CCC(c3ccccc3)C2)cc(OC)c1OC` (stereo unspecified), the cell number change was 1.01%. Moreover, under setting [1], the concentration at half-maximal activity (AC50) was 10.3 µM [falling, partial curve, poor fit].

In the case of `Cc1ccc(CCNC(=O)CCS(=O)(=O)c2ccc(Br)cc2)cc1`, the cell number change was 23.5%. For the same compound, the AC50 under setting [1] is 0.116 µM [rising, full curve, poor fit].

`CCOc1cc(/C=C2\N=C(SCC)SC2=O)cc([N+](=O)[O-])c1OC(C)=O`: the cell number change was determined as 19.9%. Besides, the AC50 under setting [1] is 6.51 µM [falling, single point].

Turning to `Cc1ccc(S(=O)(=O)N2CCCCC2)cc1NC(=O)CSc1nnc(N)s1`, the AC50 runs as follows: under setting [2], 5.8 µM [rising, single point]; under setting [1], 5.8 µM [rising, single point].

As for `CCCn1c(N)c(N(CCOC)C(=O)c2cccc(C(F)(F)F)c2)c(=O)[nH]c1=O`, the cell number change is -9.21%. Also, under setting [1], the AC50 is 35.5 µM [falling, single point].

With `O=C(Nc1cc(S(=O)(=O)N2CCOCC2)ccc1Cl)c1cc2ccccc2o1`, the cell number change turned out to be 10.7%. In addition, the half-maximal activity concentration (AC50) under setting [1] is 6.51 µM [falling, partial curve].

On to `CCOCCCNC(=O)C(c1ccc(OC)cc1)N(Cc1ccc2c(c1)OCO2)C(=O)c1cnccn1` (stereo unspecified), for which the cell number change amounted to 113%. Moreover, the AC50 under setting [2] was 0.411 µM [rising, single point]. The AC50 under setting [1] is 1.84 µM [rising, full curve].

For `CS(=O)(=O)N1CCN=C1SCc1ccccc1`, the AC50 under setting [1] is 4.11 µM [rising, full curve].

Take `Cc1cc2cc(CN(CC3CCCO3)C(=S)NCc3ccco3)c(=O)[nH]c2cc1C` (stereo unspecified): the cell number change turned out to be 13.5%. Further, the AC50 under setting [1] was 0.411 µM [rising, full curve, poor fit].

Take `CCCC(=O)Nc1ccc(N2CCN(C(=O)c3cccs3)CC2)cc1`: the cell number change amounted to 27.1%. In addition, the AC50 under setting [2] is 0.58 µM [rising, full curve, poor fit].

For the compound `S=C(NCc1cccnc1)Nc1ccc(Cl)cc1Cl`, the cell number change came out at 132%.

In the case of `CCCc1cc(=O)[nH]c(SCC(=O)N(CC)Cc2ccccc2)n1`, the cell number change came out at 1.32%. In addition, the AC50 under setting [2] is 0.231 µM [falling, full curve, poor fit]. Moreover, the AC50 under setting [1] was 0.0058 µM [falling, full curve, poor fit].

`CN1CCN(c2ccc(NC(=O)COc3ccc4ccccc4c3)cc2)CC1`: the cell number change is -15.8%.

For `Cc1ccc(N(CC(=O)NC(C)(C)C)C(=O)CNC(=O)c2cccs2)cc1C`, the cell number change is 37.1%. In addition, the AC50 under setting [2] was 0.103 µM [rising, full curve, poor fit].

With `CC(=O)N(C)C1(c2nnnn2CCOC(=O)Nc2cccc3ccccc23)CCCC1`, the AC50 under setting [1] was 2.31 µM [rising, partial curve].

Turning to `O=C1COc2ccc(C(=O)CCl)cc2N1`, the cell number change was -49.3%. For the same compound, the half-maximal activity concentration (AC50) under setting [2] is 32.6 µM [falling, partial curve, poor fit]. In addition, under setting [1], the AC50 was 0.0058 µM [falling, full curve, poor fit].

As to `O=c1c2c(nc3cc(-c4ccccc4)[nH]n13)CCC2`, the cell number change is -4.17%. Further, the concentration at half-maximal activity (AC50) under setting [1] is 11.6 µM [falling, partial curve].

For `CC(C)CNC(=O)c1cc(-c2ccc(Cl)c(Cl)c2)on1`, the cell number change amounted to 0.789%. For the same compound, the AC50 under setting [1] is 3.66 µM [falling, single point].

For `COc1ccc(-c2oc3cccnc3c2/C=C/c2ccc(OC)c(OC)c2)cc1`, the cell number change was determined as 1.62%. The half-maximal activity concentration (AC50) under setting [1] is 20.6 µM [falling, single point].

Take `O=C(NCCc1ccccn1)c1ccc2nc(Cc3ccccc3F)oc2c1`: the cell number change came to 4.69%. Also, under setting [1], the AC50 was 0.366 µM [falling, full curve].

As to `CNC(=S)N/N=C/c1c(Cl)cccc1Cl`, the cell number change stood at 38.9%. Besides, the AC50 under setting [2] is 5.8 µM [rising, partial curve].

On to `Cc1ccc(C(=O)C2Oc3ccccc3C3CC(c4ccc(C)cc4)=NN23)cc1` (stereo unspecified), for which the cell number change amounted to 7.27%. The AC50 under setting [1] is 14.6 µM [rising, partial curve].

In the case of `Cc1ccc(CNC(=O)C2CCCCC2C(=O)O)cc1` (stereo unspecified), the cell number change amounted to 5.93%.

Take `CN1CCN(c2ccc(NC(=O)COc3ccccc3)cc2Cl)CC1`: the cell number change is -25.7%.

As for `CCCCc1cc(=O)oc2cc(OCC(=O)N3CCc4ccccc43)ccc12`, the cell number change stood at 27.2%. Moreover, under setting [1], the AC50 was 6.51 µM [rising, partial curve, poor fit].

As for `O=S(=O)(c1ccccc1)c1nnn2c1nc(NC1CCN(Cc3ccccc3)CC1)c1cc(Cl)ccc12`, the half-maximal activity concentration (AC50) under setting [1] is 11.6 µM [falling, partial curve].

With `O=C(Cn1cnc2ccccc2c1=O)Nc1ccc(N2CCOCC2)cc1`, the cell number change came to 1.49%.

Turning to `COc1ccccc1NS(=O)(=O)c1cc(NC(=O)C(C)C)ccc1N1CCCCC1`, the cell number change amounted to 47.2%.

In the case of `CCCOc1cc(C)c(S(=O)(=O)n2nnc3ccccc32)cc1C`, the cell number change is -25.3%. In addition, under setting [1], the half-maximal activity concentration (AC50) was 16.4 µM [falling, single point].

For `COc1ccc(OC)c(/C=N/Nc2nc(C)cc(=O)[nH]2)c1`, the cell number change stood at 17.1%. Further, under setting [1], the concentration at half-maximal activity (AC50) was 0.651 µM [falling, full curve, poor fit].

Regarding `CCN1C=C(Cc2cccs2)C2=C(C1)C(c1cccs1)C(C#N)=C(N)O2` (stereo unspecified), the cell number change is -21.1%. Moreover, under setting [1], the concentration at half-maximal activity (AC50) is 1.64 µM [rising, partial curve].

As for `O=C(O)CSc1nc(-c2ccccc2)cc(=O)[nH]1`, the cell number change is -14.8%. Moreover, the half-maximal activity concentration (AC50) under setting [2] was 0.0326 µM [falling, full curve, poor fit].

In the case of `COc1ccc(-n2c(Cc3cccn3C)nnc2SCC(=O)Nc2ccc(C(C)=O)cc2)cc1`, the cell number change stood at 94.1%. Besides, the AC50 under setting [2] was 29.1 µM [rising, single point]. Under setting [1], the AC50 is 29.1 µM [rising, single point].

(Values after PubChem BioAssay AID2685 (National Center for Advancing Translational Sciences (NCATS), 2010).)
